Laboratory results published in the supplement of paper PMC10849652.
The list shows a part of the results.

By UniProt entry, the sequences of proteins in these tests, tags left out. Where a name states a change or a piece, a line headed by the entry shows the natural chain unless it says otherwise.
UniProt Q9Y282: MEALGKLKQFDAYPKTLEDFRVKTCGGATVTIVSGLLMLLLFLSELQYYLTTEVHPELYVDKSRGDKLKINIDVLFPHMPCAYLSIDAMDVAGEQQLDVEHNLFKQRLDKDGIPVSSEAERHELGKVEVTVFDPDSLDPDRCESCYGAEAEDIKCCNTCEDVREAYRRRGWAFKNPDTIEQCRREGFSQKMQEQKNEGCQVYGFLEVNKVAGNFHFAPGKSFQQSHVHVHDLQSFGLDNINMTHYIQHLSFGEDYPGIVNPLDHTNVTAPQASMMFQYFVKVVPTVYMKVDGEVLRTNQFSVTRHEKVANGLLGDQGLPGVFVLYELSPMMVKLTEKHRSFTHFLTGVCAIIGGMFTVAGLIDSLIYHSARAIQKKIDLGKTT
UniProt Q96EB1: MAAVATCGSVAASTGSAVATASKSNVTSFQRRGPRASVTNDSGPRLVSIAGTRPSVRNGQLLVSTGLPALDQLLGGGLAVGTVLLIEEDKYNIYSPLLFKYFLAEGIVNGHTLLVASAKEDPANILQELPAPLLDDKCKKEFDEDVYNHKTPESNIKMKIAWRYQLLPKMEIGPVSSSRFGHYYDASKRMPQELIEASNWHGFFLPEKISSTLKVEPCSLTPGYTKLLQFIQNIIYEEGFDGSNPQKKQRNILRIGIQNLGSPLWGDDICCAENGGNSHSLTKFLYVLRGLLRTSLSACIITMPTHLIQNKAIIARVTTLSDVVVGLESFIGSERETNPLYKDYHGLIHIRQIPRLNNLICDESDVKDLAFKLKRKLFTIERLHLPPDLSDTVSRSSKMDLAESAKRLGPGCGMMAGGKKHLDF
UniProt P19525: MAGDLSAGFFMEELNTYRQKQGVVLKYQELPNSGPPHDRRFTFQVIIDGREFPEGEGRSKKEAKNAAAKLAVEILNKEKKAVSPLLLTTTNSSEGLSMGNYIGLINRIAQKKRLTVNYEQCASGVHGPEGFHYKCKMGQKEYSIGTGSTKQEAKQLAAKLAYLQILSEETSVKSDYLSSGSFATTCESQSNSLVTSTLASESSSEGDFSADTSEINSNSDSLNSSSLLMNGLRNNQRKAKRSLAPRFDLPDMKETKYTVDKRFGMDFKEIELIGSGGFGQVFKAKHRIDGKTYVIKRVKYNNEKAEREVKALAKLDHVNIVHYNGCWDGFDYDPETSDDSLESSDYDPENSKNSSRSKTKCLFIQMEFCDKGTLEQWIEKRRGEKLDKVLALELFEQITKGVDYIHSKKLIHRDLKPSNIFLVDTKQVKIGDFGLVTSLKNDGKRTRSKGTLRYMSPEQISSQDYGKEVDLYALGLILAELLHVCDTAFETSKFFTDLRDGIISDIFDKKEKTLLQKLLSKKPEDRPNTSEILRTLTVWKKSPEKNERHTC
UniProt P16422: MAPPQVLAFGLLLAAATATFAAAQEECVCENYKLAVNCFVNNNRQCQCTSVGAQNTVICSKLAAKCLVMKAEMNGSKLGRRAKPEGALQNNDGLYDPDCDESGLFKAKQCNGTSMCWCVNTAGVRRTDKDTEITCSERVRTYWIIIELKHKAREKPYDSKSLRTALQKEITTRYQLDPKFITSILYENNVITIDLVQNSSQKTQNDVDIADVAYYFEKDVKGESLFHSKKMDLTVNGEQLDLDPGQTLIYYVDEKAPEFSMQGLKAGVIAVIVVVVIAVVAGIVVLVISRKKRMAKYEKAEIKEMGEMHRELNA
UniProt Q9Y6I3: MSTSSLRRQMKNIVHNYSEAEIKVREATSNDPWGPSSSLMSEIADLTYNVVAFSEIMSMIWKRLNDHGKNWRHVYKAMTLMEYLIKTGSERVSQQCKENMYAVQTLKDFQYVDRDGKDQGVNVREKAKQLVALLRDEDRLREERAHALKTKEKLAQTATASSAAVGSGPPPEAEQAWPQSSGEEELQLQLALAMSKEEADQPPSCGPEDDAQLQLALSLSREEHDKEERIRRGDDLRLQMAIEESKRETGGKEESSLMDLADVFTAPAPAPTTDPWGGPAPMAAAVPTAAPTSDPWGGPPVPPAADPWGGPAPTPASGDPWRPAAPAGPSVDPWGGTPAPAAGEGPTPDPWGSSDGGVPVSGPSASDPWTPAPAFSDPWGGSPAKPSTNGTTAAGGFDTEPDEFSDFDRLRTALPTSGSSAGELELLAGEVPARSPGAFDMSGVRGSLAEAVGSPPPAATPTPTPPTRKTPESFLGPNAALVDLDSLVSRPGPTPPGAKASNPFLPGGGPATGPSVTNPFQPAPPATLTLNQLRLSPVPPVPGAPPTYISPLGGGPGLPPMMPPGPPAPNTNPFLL
UniProt Q2NKX8: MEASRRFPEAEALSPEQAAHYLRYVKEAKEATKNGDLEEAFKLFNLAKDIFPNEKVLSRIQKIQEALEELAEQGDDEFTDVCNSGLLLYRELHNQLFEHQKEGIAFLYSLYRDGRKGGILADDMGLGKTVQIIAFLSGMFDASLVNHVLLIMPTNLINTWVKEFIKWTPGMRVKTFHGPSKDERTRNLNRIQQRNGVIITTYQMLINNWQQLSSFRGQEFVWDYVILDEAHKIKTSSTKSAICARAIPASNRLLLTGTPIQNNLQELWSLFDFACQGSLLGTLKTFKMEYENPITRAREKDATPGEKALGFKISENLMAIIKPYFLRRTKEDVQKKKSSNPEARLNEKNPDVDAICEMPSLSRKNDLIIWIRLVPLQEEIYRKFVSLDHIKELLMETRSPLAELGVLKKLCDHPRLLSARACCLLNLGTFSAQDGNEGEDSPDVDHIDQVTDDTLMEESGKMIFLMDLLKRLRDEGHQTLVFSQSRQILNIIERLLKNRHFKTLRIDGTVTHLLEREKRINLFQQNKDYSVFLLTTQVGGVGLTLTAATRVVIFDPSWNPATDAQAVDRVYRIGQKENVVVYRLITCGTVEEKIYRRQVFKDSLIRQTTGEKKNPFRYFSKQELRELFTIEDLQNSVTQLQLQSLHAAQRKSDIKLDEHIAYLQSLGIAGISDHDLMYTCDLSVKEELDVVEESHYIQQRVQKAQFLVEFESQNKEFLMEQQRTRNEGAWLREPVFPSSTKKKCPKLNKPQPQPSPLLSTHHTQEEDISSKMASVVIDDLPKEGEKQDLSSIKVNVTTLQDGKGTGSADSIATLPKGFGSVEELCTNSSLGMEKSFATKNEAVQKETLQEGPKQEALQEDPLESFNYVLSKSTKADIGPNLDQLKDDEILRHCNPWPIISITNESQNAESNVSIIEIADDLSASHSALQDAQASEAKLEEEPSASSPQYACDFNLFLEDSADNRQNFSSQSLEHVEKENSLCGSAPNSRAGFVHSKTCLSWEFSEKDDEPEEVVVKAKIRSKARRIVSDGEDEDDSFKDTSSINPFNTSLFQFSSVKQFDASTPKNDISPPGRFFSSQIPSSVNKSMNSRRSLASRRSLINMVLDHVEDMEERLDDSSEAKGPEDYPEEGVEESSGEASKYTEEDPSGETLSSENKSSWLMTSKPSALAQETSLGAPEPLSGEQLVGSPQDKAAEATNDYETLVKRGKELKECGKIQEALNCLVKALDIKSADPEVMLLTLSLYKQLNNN
UniProt O15197: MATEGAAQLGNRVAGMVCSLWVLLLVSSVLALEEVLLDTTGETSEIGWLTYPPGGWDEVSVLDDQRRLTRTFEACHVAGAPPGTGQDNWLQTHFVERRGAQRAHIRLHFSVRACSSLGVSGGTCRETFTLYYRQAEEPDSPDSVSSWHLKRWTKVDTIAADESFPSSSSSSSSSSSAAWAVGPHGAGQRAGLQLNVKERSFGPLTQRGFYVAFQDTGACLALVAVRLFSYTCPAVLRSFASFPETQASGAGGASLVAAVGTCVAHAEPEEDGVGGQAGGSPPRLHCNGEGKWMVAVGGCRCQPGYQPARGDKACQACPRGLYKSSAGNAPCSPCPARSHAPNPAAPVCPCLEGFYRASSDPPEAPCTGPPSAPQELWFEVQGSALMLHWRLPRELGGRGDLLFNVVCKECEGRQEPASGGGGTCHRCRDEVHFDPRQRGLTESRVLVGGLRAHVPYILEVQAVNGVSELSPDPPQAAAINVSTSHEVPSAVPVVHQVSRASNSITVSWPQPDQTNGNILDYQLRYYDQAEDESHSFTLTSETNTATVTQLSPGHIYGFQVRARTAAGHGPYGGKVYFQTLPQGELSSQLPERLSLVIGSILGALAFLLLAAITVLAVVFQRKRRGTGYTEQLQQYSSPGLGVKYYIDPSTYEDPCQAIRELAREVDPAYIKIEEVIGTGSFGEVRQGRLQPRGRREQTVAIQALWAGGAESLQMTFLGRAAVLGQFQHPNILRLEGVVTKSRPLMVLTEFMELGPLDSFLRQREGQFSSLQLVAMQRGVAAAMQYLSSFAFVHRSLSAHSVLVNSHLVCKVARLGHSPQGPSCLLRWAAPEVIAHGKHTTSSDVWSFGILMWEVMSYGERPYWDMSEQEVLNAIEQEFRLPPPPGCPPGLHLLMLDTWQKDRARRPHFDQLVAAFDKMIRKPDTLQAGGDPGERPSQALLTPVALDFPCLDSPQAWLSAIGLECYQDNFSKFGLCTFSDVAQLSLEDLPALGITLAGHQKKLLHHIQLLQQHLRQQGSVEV
UniProt O43491, whole entry, looked up: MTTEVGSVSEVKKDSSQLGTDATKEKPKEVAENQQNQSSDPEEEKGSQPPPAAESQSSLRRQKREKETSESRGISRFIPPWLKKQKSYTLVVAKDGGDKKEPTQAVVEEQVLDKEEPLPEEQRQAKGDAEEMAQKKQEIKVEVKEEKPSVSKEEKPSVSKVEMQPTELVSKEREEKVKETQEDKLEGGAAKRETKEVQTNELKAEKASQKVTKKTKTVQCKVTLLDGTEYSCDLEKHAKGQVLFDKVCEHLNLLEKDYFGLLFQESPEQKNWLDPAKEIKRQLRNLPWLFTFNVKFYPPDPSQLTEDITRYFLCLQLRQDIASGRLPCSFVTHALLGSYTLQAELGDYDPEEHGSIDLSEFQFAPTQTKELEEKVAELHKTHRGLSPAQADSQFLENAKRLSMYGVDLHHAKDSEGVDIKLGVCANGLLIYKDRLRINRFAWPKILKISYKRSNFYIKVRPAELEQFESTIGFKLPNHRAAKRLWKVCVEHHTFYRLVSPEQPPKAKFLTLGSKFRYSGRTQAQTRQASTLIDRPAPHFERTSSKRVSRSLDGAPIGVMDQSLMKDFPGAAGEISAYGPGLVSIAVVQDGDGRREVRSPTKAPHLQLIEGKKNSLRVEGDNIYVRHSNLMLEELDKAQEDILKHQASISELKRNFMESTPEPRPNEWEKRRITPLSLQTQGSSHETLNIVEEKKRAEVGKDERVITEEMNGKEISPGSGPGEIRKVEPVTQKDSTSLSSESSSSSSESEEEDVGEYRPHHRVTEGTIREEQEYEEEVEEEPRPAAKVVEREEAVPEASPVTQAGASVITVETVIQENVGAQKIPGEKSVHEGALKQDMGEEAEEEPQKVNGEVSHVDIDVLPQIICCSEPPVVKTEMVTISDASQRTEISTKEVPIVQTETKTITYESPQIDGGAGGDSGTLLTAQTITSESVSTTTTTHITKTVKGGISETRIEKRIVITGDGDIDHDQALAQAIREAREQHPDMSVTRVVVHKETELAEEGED
UniProt Q8N766: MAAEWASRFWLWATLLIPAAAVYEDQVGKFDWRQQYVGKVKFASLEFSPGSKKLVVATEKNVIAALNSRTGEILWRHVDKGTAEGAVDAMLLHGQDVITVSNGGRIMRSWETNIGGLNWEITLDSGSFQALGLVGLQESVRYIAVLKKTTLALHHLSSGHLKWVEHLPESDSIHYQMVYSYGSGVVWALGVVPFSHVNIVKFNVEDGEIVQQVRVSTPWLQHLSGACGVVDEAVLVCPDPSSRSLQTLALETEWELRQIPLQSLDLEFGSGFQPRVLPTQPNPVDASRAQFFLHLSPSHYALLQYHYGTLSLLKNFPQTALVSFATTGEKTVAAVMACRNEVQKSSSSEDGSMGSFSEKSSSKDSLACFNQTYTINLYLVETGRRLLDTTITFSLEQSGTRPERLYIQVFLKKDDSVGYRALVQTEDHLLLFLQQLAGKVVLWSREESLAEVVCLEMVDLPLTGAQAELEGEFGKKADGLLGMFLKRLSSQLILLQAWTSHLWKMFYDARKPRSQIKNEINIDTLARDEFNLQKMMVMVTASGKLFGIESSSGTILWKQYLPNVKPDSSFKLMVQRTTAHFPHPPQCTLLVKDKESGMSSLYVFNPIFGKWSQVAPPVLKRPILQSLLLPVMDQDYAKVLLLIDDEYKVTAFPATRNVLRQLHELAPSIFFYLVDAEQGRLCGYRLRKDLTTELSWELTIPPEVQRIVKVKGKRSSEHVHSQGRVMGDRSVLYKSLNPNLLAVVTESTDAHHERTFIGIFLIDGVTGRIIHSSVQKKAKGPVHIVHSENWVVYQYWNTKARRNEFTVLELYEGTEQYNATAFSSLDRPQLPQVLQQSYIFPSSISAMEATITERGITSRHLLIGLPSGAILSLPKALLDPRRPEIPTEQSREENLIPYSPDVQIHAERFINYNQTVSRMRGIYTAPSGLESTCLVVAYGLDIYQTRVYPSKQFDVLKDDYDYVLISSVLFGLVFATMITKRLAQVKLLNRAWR

Tests used:
Assay in all cases: log2 fold change, soluble protein after heating vs DMSO (PISA); higher = thermal stabilisation; K562 lysate, 10 uM; active = over 0.2 and 3.5 SD of the protein, either way, in both replicates (recomputed)
vemurafenib = compound: CCCS(=O)(=O)Nc1ccc(F)c(C(=O)c2c[nH]c3ncc(-c4ccc(Cl)cc4)cc23)c1F [vemurafenib]
Procedure, shortened: (§1)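 Dounce homogenisation of K562 pellets in PBS pH 7.4 with 1 mM MgCl2 produced a crude extract, used at 1 mg/mL protein. Exposure to 10 μM compound lasted 30 min, and aliquots were then heated for 3 min across 48°C-58°C, pooled and brought to 0.5% NP-40 at 4°C. The supernatant after 21,000xg for 90 min was quantified by TMTpro 16plex LC-MS/MS with channel sums equalised. Duplicate values are given as log-two fold change in thermal stability relative to solvent controls.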

[1] = compound: CCCS(=O)(=O)Nc1ccc(F)c(C(=O)c2c[nH]c3ncc(Cl)cc23)c1F
Procedure, shortened: as §1

barasertib = compound: CCN(CCCOc1ccc2c(Nc3cc(CC(=O)Nc4cccc(F)c4)[nH]n3)ncnc2c1)CCOP(=O)(O)O [barasertib]
Procedure, shortened: as §1

[2] = compound: CC[C@@H]1C(=O)N(C)c2cnc(Nc3ccc(C(=O)NC4CCN(C)CC4)cc3OC)nc2N1C1CCCC1
Procedure, shortened: as §1

volasertib = compound: CC[C@@H]1C(=O)N(C)c2cnc(Nc3ccc(C(=O)N[C@H]4CC[C@H](N5CCN(CC6CC6)CC5)CC4)cc3OC)nc2N1C(C)C [volasertib]
Procedure, shortened: as §1

[3] = compound: CCn1c(C(=O)N(C2CC2)C2CC2)cc2c3c(ncn3C)c(Nc3cc(C)n(C)n3)nc21
Procedure, shortened: as §1

[4] = compound: CCn1cc(-c2ccnc3[nH]c(-c4cccc(CN(C)C)c4)cc23)c(-c2ccc(NC(=O)N(C)C)cc2)n1
Procedure, shortened: as §1

[5] = compound: CN1CCC(CNc2ccc3ncc(-c4cccc(OC(F)(F)F)c4)n3n2)CC1
Procedure, shortened: as §1

saracatinib = compound: CN1CCN(CCOc2cc(OC3CCOCC3)c3c(Nc4c(Cl)ccc5c4OCO5)ncnc3c2)CC1 [saracatinib]
Procedure, shortened: as §1

sotrastaurin = compound: CN1CCN(c2nc(C3=C(c4c[nH]c5ccccc45)C(=O)NC3=O)c3ccccc3n2)CC1 [sotrastaurin]
Procedure, shortened: as §1

Measured: log2 fold change

ERGIC3 isoform 3 (UniProt Q9Y282)
inactive: vemurafenib 0.08 | [1] 0.056 | barasertib 0.109 | [2] -0.021 | volasertib 0.009 | [3] 0.031 | [4] 0.012 | [5] -0.047 | saracatinib -0.028 | sotrastaurin 0.047

ELP4 (UniProt Q96EB1)
inactive: vemurafenib 0.015 | [1] -0.013 | barasertib -0.073 | [2] 0.046 | volasertib -0.004 | [3] -0.015 | [4] 0.001 | [5] 0.029 | saracatinib 0.01 | sotrastaurin 0.021

EPS15 (UniProt P42566)
inactive: vemurafenib -0.012 | [1] -0.004 | barasertib -0.005 | [2] 0.046 | volasertib -0.006 | [3] 0.016 | [4] 0.002 | [5] -0.024 | saracatinib -0.006 | sotrastaurin -0.011

EIF2AK2 (UniProt P19525)
inactive: vemurafenib 0.025 | [1] 0.012 | barasertib -0.038 | [2] -0.09 | volasertib -0.03 | [3] -0.008 | [4] -0.081 | [5] 0.067 | saracatinib -0.011 | sotrastaurin 0.007

ERC1 (UniProt X6RLX0)
inactive: vemurafenib -0.005 | [1] -0.01 | barasertib 0.001 | [2] 0.037 | volasertib 0 | [3] 0.019 | [4] -0.002 | [5] -0.012 | saracatinib 0.026 | sotrastaurin -0.007

ELP5 isoform 4 (UniProt Q8TE02)
inactive: vemurafenib -0.025 | [1] 0 | barasertib 0.004 | [2] 0.116 | volasertib 0.003 | [3] -0.028 | [4] -0.025 | [5] 0.019 | saracatinib -0.046 | sotrastaurin 0.025

EMG1 (UniProt Q92979)
inactive: vemurafenib 0.022 | [1] 0.014 | barasertib 0 | [2] -0.016 | volasertib -0.024 | [3] 0.052 | [4] -0.008 | [5] -0.005 | saracatinib -0.025 | sotrastaurin -0.016

ELAC1 (UniProt Q9H777)
inactive: vemurafenib -0.005 | [1] 0.043 | barasertib -0.101 | [2] -0.042 | volasertib 0 | [4] -0.003 | [5] 0.055

EPCAM (UniProt P16422)
inactive: vemurafenib 0.038 | [1] -0.005 | barasertib 0.005 | [2] 0.005 | volasertib 0.037 | [3] -0.046 | [4] 0 | [5] -0.007 | saracatinib 0.015 | sotrastaurin 0.077

EPN1 (UniProt Q9Y6I3)
inactive: vemurafenib -0.003 | [1] 0.019 | barasertib -0.041 | [2] 0.022 | volasertib -0.026 | [3] -0.008 | [4] 0.144 | [5] -0.015 | saracatinib 0.026 | sotrastaurin -0.008

ENO1, A0A2R8YEM5
active: [4] -0.44 | [5] 0.325
inactive: vemurafenib -0.03 | [1] -0.017 | barasertib -0.056 | [2] 0.008 | volasertib 0.004 | [3] -0.04 | saracatinib 0.031 | sotrastaurin -0.011

EIF3M (UniProt Q7L2H7)
inactive: vemurafenib -0.011 | [1] 0.015 | barasertib 0.012 | [2] -0.046 | volasertib -0.013 | [3] -0.003 | [4] 0.151 | [5] -0.018 | saracatinib 0 | sotrastaurin -0.01

EPS15L1 (UniProt M0QY01)
inactive: vemurafenib 0.062 | [1] 0 | [2] -0.046 | volasertib -0.019 | [4] -0.035 | [5] 0.049 | saracatinib 0.14

ERCC6L (UniProt Q2NKX8)
inactive: vemurafenib 0.003 | [1] 0.051 | barasertib 0.013 | [2] -0.047 | volasertib -0.046 | [3] 0.018 | [4] 0.051 | [5] -0.076 | saracatinib 0.002 | sotrastaurin 0.036

EMD (UniProt P50402)
inactive: vemurafenib 0.022 | [1] 0.003 | barasertib 0.076 | [2] -0.016 | volasertib -0.017 | [3] 0.057 | [4] -0.02 | [5] -0.033 | saracatinib 0.012 | sotrastaurin -0.007

ELMO2 (UniProt Q96JJ3)
inactive: vemurafenib 0.092 | [1] 0.035 | volasertib 0.066 | [3] -0.007 | [4] -0.087 | [5] 0.091 | saracatinib 0.008 | sotrastaurin -0.025

ERCC1 (UniProt P07992)
inactive: vemurafenib 0.06 | [1] -0.039 | barasertib -0.002 | [2] -0.05 | volasertib -0.035 | [3] -0.03 | [4] -0.014 | [5] 0.032 | saracatinib 0.026 | sotrastaurin -0.062

EIF4H isoform 2 (UniProt Q15056)
inactive: vemurafenib -0.394 | [1] 0.102 | barasertib 0.011 | [2] 0.151 | volasertib 0.005 | [3] 0.227 | saracatinib 0.008 | sotrastaurin -0.008

ELOVL6 (UniProt Q9H5J4)
inactive: vemurafenib -0.322 | [1] 0.032 | volasertib -0.165 | [4] -0.307 | [5] 0.105 | saracatinib 0.056 | sotrastaurin -0.003

EMC6 (UniProt Q9BV81)
inactive: vemurafenib 0.054 | [1] -0.084 | barasertib -0.044 | [2] 0.172 | volasertib -0.011 | [3] -0.119 | [4] 0.012 | [5] 0.008 | saracatinib -0.029 | sotrastaurin -0.008

ERF (UniProt P50548)
inactive: vemurafenib 0.085 | [3] 0.055 | saracatinib -0.041 | sotrastaurin 0.166

EPB41 isoform 4 (UniProt P11171)
inactive: [1] 0.014 | volasertib 0.134 | [3] -0.079 | [4] -0.073 | [5] -0.065 | sotrastaurin -0.02

ELOVL7 (UniProt A1L3X0)
inactive: [1] 0.04 | barasertib 0.031 | volasertib 0.005 | [3] 0.013 | saracatinib 0.035

EPS8L2 (UniProt Q9H6S3)
inactive: [1] 0 | barasertib -0.049 | [2] 0.022 | volasertib 0.023 | [3] -0.034 | [4] -0.196 | [5] 0.056 | saracatinib 0.045 | sotrastaurin -0.049

ENO3 (UniProt K7EKN2)
inactive: [1] -0.071 | volasertib -0.038

ENTPD6 (UniProt O75354)
inactive: [1] -0.038 | barasertib -0.153 | volasertib 0.035 | [3] -0.025 | [4] 0.128 | [5] 0.039 | saracatinib -0.007 | sotrastaurin 0.036

EPHB6 (UniProt O15197)
inactive: vemurafenib -0.088 | [2] -0.23 | [3] -0.166 | [4] 0.03 | [5] -0.093

EPB41L2 isoform 4 (UniProt O43491)
inactive: [1] -0.03 | barasertib 0.176 | volasertib 0.039 | [3] -0.08 | [4] -0.098 | [5] 0.048

EIF3G (UniProt K7ENA8)
inactive: [1] 0.02 | barasertib 0.089 | volasertib 0.065 | [4] 0.008 | [5] 0 | saracatinib 0.03

ERAP2 (UniProt Q6P179)
inactive: [1] 0.013 | barasertib 0.382 | [2] 0.005 | volasertib 0.04 | [3] -0.144 | sotrastaurin 0.036

ELP5 isoform 2 (UniProt Q8TE02)
inactive: [4] 0.038 | [5] -0.252

ERG28 (UniProt Q9UKR5)
inactive: [1] -0.012 | barasertib 0.065 | [2] 0.179 | volasertib 0.048 | [4] 0.541 | saracatinib 0.1
active: [5] -0.497

EIF2B5, A0A3B3ITK8
inactive: [1] -0.071 | volasertib 0.081

Three successive records from above:
ELOVL7 (UniProt A1L3X0)
inactive: [1] 0.04 | barasertib 0.031 | volasertib 0.005 | [3] 0.013 | saracatinib 0.035

EPS8L2 (UniProt Q9H6S3)
inactive: [1] 0 | barasertib -0.049 | [2] 0.022 | volasertib 0.023 | [3] -0.034 | [4] -0.196 | [5] 0.056 | saracatinib 0.045 | sotrastaurin -0.049

ENO3 (UniProt K7EKN2)
inactive: [1] -0.071 | volasertib -0.038

(further entries)

ENTR1 (UniProt Q96C92)
inactive: vemurafenib 0.071 | [2] -0.026 | [3] -0.125 | sotrastaurin -0.061

ERCC8 (UniProt Q13216)
inactive: [1] 0.019 | barasertib 0.05 | volasertib -0.061 | [4] -0.03 | [5] 0.085 | sotrastaurin 0.06

EIF2AK3 (UniProt Q9NZJ5)
inactive: [1] -0.216 | volasertib 0.231 | [3] 0.119 | [4] -0.063 | [5] -0.199 | saracatinib 0.01

EME1 isoform 2 (UniProt Q96AY2)
inactive: vemurafenib -0.077 | barasertib -0.023 | [2] 0.104 | [3] -0.006 | [4] -0.007 | [5] -0.012 | sotrastaurin 0.028

EPG5 (UniProt Q9HCE0)
inactive: [1] 0.149 | barasertib 0.052 | [2] -0.016 | volasertib -0.112 | [3] -0.033 | [4] -0.062 | [5] 0.017 | saracatinib 0.24 | sotrastaurin 0.025

EMC1 isoform 3 (UniProt Q8N766)
inactive: [1] 0.093 | volasertib -0.076 | [3] -0.108 | sotrastaurin -0.079

EIF4B (UniProt F8VP89)
inactive: [1] 0 | barasertib -0.007 | volasertib -0.067 | saracatinib 0.146 | sotrastaurin 0.01

EIF4G3, A0A0A0MSA7
inactive: [3] -0.168 | saracatinib 0.037

ELOF1 (UniProt P60002)
inactive: [1] 0.016 | barasertib 0.036 | volasertib 0.05 | [3] -0.207 | [4] 0.117 | [5] 0.064 | saracatinib 0.109 | sotrastaurin -0.429

EML5 isoform 5 (UniProt Q05BV3)
inactive: [1] -0.069 | volasertib -0.067 | [3] -0.054 | [4] -0.103 | [5] 0.023 | saracatinib 0.042 | sotrastaurin 0.143

ERCC6 (UniProt P0DP91)
inactive: barasertib 0.144 | [2] 0.121 | [3] -0.215 | saracatinib 0.059

EPB41L5 (UniProt Q9HCM4)
inactive: [1] -0.035 | barasertib -0.047 | [2] -0.213 | volasertib 0.061 | [4] 0.043 | [5] 0.062 | sotrastaurin 0.106

ENTPD4 (UniProt Q9Y227)
inactive: [3] -0.028

EIF3B (UniProt C9JQN7)
inactive: [1] -0.001 | barasertib 0.006 | volasertib -0.045 | [3] -0.08 | [4] -0.121 | [5] 0.028 | sotrastaurin 0.044

EIF4G1 isoform 5 (UniProt Q04637)
inactive: [1] 0.064 | volasertib 0.115

EPN1 isoform 3 (UniProt Q9Y6I3)
inactive: [1] 0.082 | volasertib -0.069 | [3] -0.11 | [4] -0.453 | [5] 0.231 | saracatinib 0.2 | sotrastaurin 0.161

EPC1 (UniProt Q9H2F5)
inactive: barasertib 0.026 | [4] -0.226 | [5] -0.014 | sotrastaurin 0.192

EIF4A1 (UniProt J3KS25)
inactive: vemurafenib 0.039 | [2] 0.126 | [3] -0.14

EIF3I (UniProt Q5TFK1)
inactive: [1] 0.147 | volasertib -0.112 | [4] -0.048 | [5] 0.044

EMC1 (UniProt H7C5A2)
inactive: [1] -0.006 | volasertib -0.172 | [3] -0.312 | saracatinib -0.052 | sotrastaurin -0.223

EIF4E3 (UniProt Q8N5X7)
inactive: vemurafenib -0.086 | [2] -0.061 | [4] -0.058 | [5] 0.087 | sotrastaurin -0.03

EPN2 (UniProt I3L356)
inactive: [1] 0.212 | barasertib -0.106 | volasertib -0.026 | [4] -0.277 | [5] 0.075

EPB41L5 isoform 2 (UniProt Q9HCM4)
inactive: [1] 0.079 | volasertib 0.103
